These are yes or no findings as the source states them, for the method shown. In cells and extracts the contact can be indirect. Here binding means that the protein was enriched with, or labelled near, the bait; the list need not be complete. No binding means not detected with the bait.
Biological target: T1, Ran GTPase activating protein 1 (human (endogenous in DLD1)) (UniProt P46060)
T1 sequence: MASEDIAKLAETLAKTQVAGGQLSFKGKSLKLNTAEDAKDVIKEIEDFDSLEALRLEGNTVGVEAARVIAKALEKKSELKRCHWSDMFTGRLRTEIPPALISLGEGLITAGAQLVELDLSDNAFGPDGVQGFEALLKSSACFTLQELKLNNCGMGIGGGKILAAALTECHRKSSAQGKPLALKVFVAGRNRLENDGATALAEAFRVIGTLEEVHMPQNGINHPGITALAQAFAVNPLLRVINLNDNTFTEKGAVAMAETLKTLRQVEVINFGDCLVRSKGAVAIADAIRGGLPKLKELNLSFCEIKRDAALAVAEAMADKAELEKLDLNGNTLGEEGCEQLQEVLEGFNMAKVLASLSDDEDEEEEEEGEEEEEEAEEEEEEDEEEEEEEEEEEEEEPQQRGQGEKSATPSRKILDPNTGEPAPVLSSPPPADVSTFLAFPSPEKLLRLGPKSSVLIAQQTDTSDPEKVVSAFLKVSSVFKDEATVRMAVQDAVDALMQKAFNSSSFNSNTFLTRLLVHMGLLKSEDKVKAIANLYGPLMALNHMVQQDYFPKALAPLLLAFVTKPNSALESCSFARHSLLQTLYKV
Assay: affinity purification with mass spectrometry; co-immunoprecipitation of RanGAP1 from CRC cells followed by protein mass spectrometry; candidates combined with label-free LC/MS proteomics; protocol by ref. 10

B1: cellular retinoic acid-binding protein 2 (protein, UniProt P29373 1-138)
chain: MPNFSGNWKIIRSENFEELLKVLGVNVMLRKIAVAAASKPAVEIKQEGDTFYIKTSTTVRTTEINFKVGEEFEEQTVDGRPCKSLVKWESENKMVCEQKLLKGEGPKTSWTRELTNDGELILTMTADDVVCTRVYVRE
binding: no binding

— publication PMC11016466
